# The other results are listed elsewhere or left out.
# B1: PX14343C-bfa-541-26-541 (Bacteroides fragilis) (protein)
# chain: KAPLDEIADDSFWSDETLVKYYVNDLYSEISVDGLQLQENRSDNSVSAQRDKYRASWFKFNYDMVSASDPQDDDVWEDYYVKVRKCNRFFERIGTSTIEESEKSRLTGEVHFLRAMFYFEMVKRYGGVILLDKVLTMEDNWEIPRSSEKECYDFILEDLKKATEMLPASYGSREKGRATKGAAYALKSRVELYDKRYEDVIKSCAEVYKLGYELVDGTTPEKYRSIWWTTNKDNKEIIFDVQYKSPDVYNNMMVCNMVTYINDKYGDRGWGGLGPTQELIDAFEMADGTPATQYSQAPADQVFDINTCGIYEGREPRFYANIVFHGSQIFFNADKGAVTVDRYLMDTPDKGDGSLTGYNVWKWIDYDNYNYPYAGAGSPDFSTNWIILRYAEIYLNDAEARLETGDVEGARKAVNMIRQRVGLPDLTESDPEKLRELIRKERRIEFAFEEQRFYDVRRWKIGPETQTTLHGVRFVSPTEFKVTKTDIRTWNDRLYLTPVPHDEIVRSSVLKQNLGY
# What was measured:
# Assay in all cases: glycan array binding signal (z-score within array); higher = stronger binding
# Conditions in all cases: glycan notation: IUPAC condensed, linker removed
# [1] = molecular target: Gal(b1-3)GlcNAc(b1-6)[Gal(b1-3)]GalNAc
# How it was run: (§1)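 The binding signal is a Z-score computed within each array and averaged over linkers. Arrays of the same protein sequence at different concentrations or buffers were also averaged together. Data originate from 3228 arrays in the Consortium for Functional Glycomics database, kept only where the protein sequence was available.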
# Gal(b1-3)GlcNAc6S = molecular target: Gal(b1-3)GlcNAc6S
# How it was run: as §1
# [2] = molecular target: Gal(b1-3)[Fuc(a1-4)]GlcNAc
# How it was run: as §1
# [3] = molecular target: Gal(b1-3)[Fuc(a1-4)]GlcNAc(b1-2)Man
# How it was run: as §1
# [4] = molecular target: Gal(b1-3)[Fuc(a1-4)]GlcNAc(b1-2)Man(a1-3)[Gal(b1-3)[Fuc(a1-4)]GlcNAc(b1-2)Man(a1-6)]Man(b1-4)GlcNAc(b1-4)[Fuc(a1-6)]GlcNAc
# How it was run: as §1
# [5] = molecular target: Gal(b1-3)[Fuc(a1-4)]GlcNAc(b1-3)Gal(b1-3)[Fuc(a1-4)]GlcNAc
# How it was run: as §1
# [6] = molecular target: Gal(b1-3)[Fuc(a1-4)]GlcNAc(b1-3)Gal(b1-4)[Fuc(a1-3)]GlcNAc
# How it was run: as §1
# [7] = molecular target: Gal(b1-3)[Fuc(a1-4)]GlcNAc(b1-6)GalNAc
# How it was run: as §1
# [8] = molecular target: Gal(b1-3)[GlcNAc(b1-6)]GalNAc
# How it was run: as §1
# [9] = molecular target: Gal(b1-3)[Neu5Ac(a2-6)]GalNAc
# How it was run: as §1
# [10] = molecular target: Gal(b1-3)[Neu5Ac(a2-6)]GlcNAc(b1-4)Gal(b1-4)Glc
# How it was run: as §1
# [11] = molecular target: Gal(b1-3)[Neu5Ac(b2-6)]GalNAc
# How it was run: as §1
# Gal(b1-4)Gal = molecular target: Gal(b1-4)Gal
# How it was run: as §1
# [12] = molecular target: Gal(b1-4)GalNAc(a1-3)[Fuc(a1-2)]Gal(b1-4)GlcNAc
# How it was run: as §1
# [13] = molecular target: Gal(b1-4)GalNAc(b1-3)[Fuc(a1-2)]Gal(b1-4)GlcNAc
# How it was run: as §1
# Gal(b1-4)Glc = molecular target: Gal(b1-4)Glc
# How it was run: as §1
# Gal(b1-4)Glc6S = molecular target: Gal(b1-4)Glc6S
# How it was run: as §1
# Gal(b1-4)GlcNAc = molecular target: Gal(b1-4)GlcNAc
# How it was run: as §1
# [14] = molecular target: Gal(b1-4)GlcNAc(a1-6)Gal(b1-4)GlcNAc
# How it was run: as §1
# Gal(b1-4)GlcNAc(b1-2)Man = molecular target: Gal(b1-4)GlcNAc(b1-2)Man
# How it was run: as §1
# [15] = molecular target: Gal(b1-4)GlcNAc(b1-2)Man(a1-3)Man(b1-4)GlcNAc(b1-4)GlcNAc
# How it was run: as §1
# [16] = molecular target: Gal(b1-4)GlcNAc(b1-2)Man(a1-3)[Gal(b1-4)GlcNAc(b1-2)Man(a1-6)]Man(b1-4)GlcNAc(b1-4)GlcNAc
# How it was run: as §1
# [17] = molecular target: Gal(b1-4)GlcNAc(b1-2)Man(a1-3)[Gal(b1-4)GlcNAc(b1-2)Man(a1-6)]Man(b1-4)GlcNAc(b1-4)[Fuc(a1-6)]GlcNAc
# How it was run: as §1
# [18] = molecular target: Gal(b1-4)GlcNAc(b1-2)Man(a1-3)[Gal(b1-4)GlcNAc(b1-2)Man(a1-6)][Gal(b1-4)GlcNAc(b1-4)]Man(b1-4)GlcNAc(b1-4)[Fuc(a1-6)]GlcNAc
# How it was run: as §1
# [19] = molecular target: Gal(b1-4)GlcNAc(b1-2)Man(a1-3)[Gal(b1-4)GlcNAc(b1-2)Man(a1-6)][GlcNAc(b1-4)]Man(b1-4)GlcNAc(b1-4)[Fuc(a1-6)]GlcNAc
# How it was run: as §1
# [20] = molecular target: Gal(b1-4)GlcNAc(b1-2)Man(a1-3)[GlcNAc(b1-2)Man(a1-6)]Man(b1-4)GlcNAc(b1-4)GlcNAc
# How it was run: as §1
# [21] = molecular target: Gal(b1-4)GlcNAc(b1-2)Man(a1-3)[GlcNAc(b1-4)][Gal(b1-4)GlcNAc(b1-2)Man(a1-6)]Man(b1-4)GlcNAc(b1-4)GlcNAc
# How it was run: as §1
# [22] = molecular target: Gal(b1-4)GlcNAc(b1-2)Man(a1-3)[Man(a1-6)]Man(b1-4)GlcNAc(b1-4)GlcNAc
# How it was run: as §1
# [23] = molecular target: Gal(b1-4)GlcNAc(b1-2)Man(a1-6)Man(b1-4)GlcNAc(b1-4)GlcNAc
# How it was run: as §1
# [24] = molecular target: Gal(b1-4)GlcNAc(b1-2)Man(a1-6)[GlcNAc(b1-2)Man(a1-3)]Man(b1-4)GlcNAc(b1-4)GlcNAc
# How it was run: as §1
# [25] = molecular target: Gal(b1-4)GlcNAc(b1-2)Man(a1-6)[Man(a1-3)]Man(b1-4)GlcNAc(b1-4)GlcNAc
# How it was run: as §1
# [26] = molecular target: Gal(b1-4)GlcNAc(b1-2)[Gal(b1-4)GlcNAc(b1-4)]Man(a1-3)[Gal(b1-4)GlcNAc(b1-2)Man(a1-6)]Man(b1-4)GlcNAc(b1-4)GlcNAc
# How it was run: as §1
# [27] = molecular target: Gal(b1-4)GlcNAc(b1-2)[Gal(b1-4)GlcNAc(b1-4)]Man(a1-3)[Gal(b1-4)GlcNAc(b1-2)[Gal(b1-4)GlcNAc(b1-6)]Man(a1-6)]Man(b1-4)GlcNAc(b1-4)GlcNAc
# How it was run: as §1
# [28] = molecular target: Gal(b1-4)GlcNAc(b1-2)[Gal(b1-4)GlcNAc(b1-4)]Man(a1-3)[GlcNAc(b1-4)][Gal(b1-4)GlcNAc(b1-2)Man(a1-6)]Man(b1-4)GlcNAc(b1-4)GlcNAc
# How it was run: as §1
# [29] = molecular target: Gal(b1-4)GlcNAc(b1-2)[Gal(b1-4)GlcNAc(b1-4)]Man(a1-3)[GlcNAc(b1-4)][Gal(b1-4)GlcNAc(b1-2)[Gal(b1-4)GlcNAc(b1-6)]Man(a1-6)]Man(b1-4)GlcNAc(b1-4)GlcNAc
# How it was run: as §1
# [30] = molecular target: Gal(b1-4)GlcNAc(b1-2)[Gal(b1-4)GlcNAc(b1-6)]Man(a1-6)[Gal(b1-4)GlcNAc(b1-2)Man(a1-3)]Man(b1-4)GlcNAc(b1-4)GlcNAc
# How it was run: as §1
# [31] = molecular target: Gal(b1-4)GlcNAc(b1-2)[Gal(b1-4)GlcNAc(b1-6)]Man(a1-6)[Gal(b1-4)GlcNAc(b1-2)Man(a1-3)]Man(b1-4)GlcNAc(b1-4)[Fuc(a1-6)]GlcNAc
# How it was run: as §1
binder,measurement,setting,value
B1,glycan array binding signal (z-score),[1],0.155
same,glycan array binding signal (z-score),Gal(b1-3)GlcNAc6S,0.281
same,glycan array binding signal (z-score),[2],-0.74
same,glycan array binding signal (z-score),[3],-0.63
same,glycan array binding signal (z-score),[4],-0.223
same,glycan array binding signal (z-score),[5],-1.19
same,glycan array binding signal (z-score),[6],-0.835
same,glycan array binding signal (z-score),[7],0.909
same,glycan array binding signal (z-score),[8],0.163
same,glycan array binding signal (z-score),[9],1.66
same,glycan array binding signal (z-score),[10],-0.082
same,glycan array binding signal (z-score),[11],1.61
same,glycan array binding signal (z-score),Gal(b1-4)Gal,-0.343
same,glycan array binding signal (z-score),[12],0.038
same,glycan array binding signal (z-score),[13],-0.908
same,glycan array binding signal (z-score),Gal(b1-4)Glc,-0.347
same,glycan array binding signal (z-score),Gal(b1-4)Glc6S,0.195
same,glycan array binding signal (z-score),Gal(b1-4)GlcNAc,0.063
same,glycan array binding signal (z-score),[14],8.35
same,glycan array binding signal (z-score),Gal(b1-4)GlcNAc(b1-2)Man,0.271
same,glycan array binding signal (z-score),[15],0.345
same,glycan array binding signal (z-score),[16],-1.05
same,glycan array binding signal (z-score),[17],1.99
same,glycan array binding signal (z-score),[18],-0.493
same,glycan array binding signal (z-score),[19],1.34
same,glycan array binding signal (z-score),[20],-1.28
same,glycan array binding signal (z-score),[21],0.029
same,glycan array binding signal (z-score),[22],-0.61
same,glycan array binding signal (z-score),[23],0.647
same,glycan array binding signal (z-score),[24],-0.236
same,glycan array binding signal (z-score),[25],-0.503
same,glycan array binding signal (z-score),[26],0.388
same,glycan array binding signal (z-score),[27],-0.349
same,glycan array binding signal (z-score),[28],-0.12
same,glycan array binding signal (z-score),[29],3.53
same,glycan array binding signal (z-score),[30],0.711
same,glycan array binding signal (z-score),[31],1.7

# An excerpt of these results, with tabs:
binder	measurement	setting	value
B1	glycan array binding signal (z-score)	[4]	-0.223
same	glycan array binding signal (z-score)	[5]	-1.19
same	glycan array binding signal (z-score)	[6]	-0.835
same	glycan array binding signal (z-score)	[10]	-0.082
same	glycan array binding signal (z-score)	Gal(b1-4)Glc	-0.347
same	glycan array binding signal (z-score)	Gal(b1-4)GlcNAc	0.063
same	glycan array binding signal (z-score)	[19]	1.34
same	glycan array binding signal (z-score)	[23]	0.647
same	glycan array binding signal (z-score)	[27]	-0.349
same	glycan array binding signal (z-score)	[28]	-0.12
same	glycan array binding signal (z-score)	[29]	3.53

# Reference: the supplement of paper PMC8728848
